Measurements published in patent US20070292922A1, “Regulated expression of recombinant proteins from adeno-associated viral vectors” (Cell Genesys, Inc., priority 2006, published 2007).
For at least one compound, name, drawing or mass did not settle the structure.

Experiments:
[1] = test system: HuH7 cells; assay: Regulated expression of DC101 antibody from AAV plasmids in vitro (rat IgG1 ELISA of culture supernatants); format: cell-based; conditions: HuH7 cells co-transfected with the two AAV plasmids
[2] = Regulation of immunoglobulin expression in vivo: serum DC101 by ELISA after AAV vectors i.v. and rapamycin i.p.; design: species or system NCR nu.nu nude mice; conditions: 2.5×10^11 vp of each AAV vector i.v. Day 0; rapamycin 3 mg/kg i.p. from Day 21

SMILES: CO[C@H]1C[C@@H]2CC[C@@H](C)[C@@](O)(O2)C(=O)C(=O)N2CCCC[C@H]2C(=O)O[C@H]([C@H](C)C[C@@H]2CC[C@@H](O)[C@H](OC)C2)CC(=O)[C@H](C)/C=C(\C)[C@@H](O)[C@@H](OC)C(=O)[C@H](C)C[C@H](C)/C=C/C=C/C=C/1C [rapamycin]
- rat monoclonal antibody protein (IgG1) in cell culture supernatants ([1]; in the presence of rapamycin (0.3, 1, 3, 10 or 3 nM), supernatants collected 48 hours after medium change): detected
- dependence of DC101 expression on inducer concentration ([1]; increasing concentrations of rapamycin): dependent on the concentration of rapamycin
- onset of DC101 expression after administration of rapamycin [2]: induced within one week
